Measurements taken from PubChem BioAssay AID1487 (National Center for Advancing Translational Sciences (NCATS), 2009).
The other results are listed elsewhere or left out. These are further read-outs of the screen, such as a control signal, another cell line or another target. No call is given for them. Most of these compounds were active or inconclusive in the main read-out, so they are no random draw. Words in brackets tell the shape of the fitted curve; partial curves, single points and poor fits give uncertain potencies.

Assay: qHTS Assay for Modulators of Lamin A Splicing
Conditions: HeLa LMNA splicing GFP/RFP minigene ratio, 48 h
Method in brief: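 S3 HeLa stable clones carrying a lamin A-EGFP splicing minigene plus DsRed2 were seeded at 600 cells/well in Opti-MEM with 2% FBS, pin-dosed and incubated 48 h at 37°C. Acumen cytometry (488 nm) gave the GFP/RFP total-intensity ratio.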

[1] = measured here: GFP splicing reporter channel
[2] = measured here: RFP viability control channel

| SMILES | AC50 [1] | AC50 [2] |
| --- | --- | --- |
| CCOc1ccc(NC(=O)c2cc(CN3CCCC3)on2)cc1 | 0.2 µM [falling, full curve, poor fit] | – |
| COc1ccc(/C=C/C(=O)Oc2cccc(/C=N/NC(=O)COc3c(C)cccc3C)c2)cc1 | – | 35.5 µM [falling, single point] |
| COc1cc(-c2nc3cnccn3c2Nc2ccc3c(c2)OCCO3)ccc1O | – | 17.8 µM [rising, partial curve, poor fit] |
| CCC(Oc1ccccc1)C(=O)Nc1nnc(C(F)(F)F)s1 (stereo unspecified) | – | 7.94 µM [rising, partial curve, poor fit] |
| CCn1c(NC(=O)c2ccc(F)cc2)c2ccccc2nc1=O | – | 25.1 µM [rising, single point] |
| COc1ccc(N=Nc2cnc(C)nc2-c2ccccc2)cc1 | – | 11.2 µM [rising, single point] |
| COC(=O)C1=NN(c2ccccc2)C2(S1)S/C(=C\c1ccccc1)C(=O)N2c1ccccc1 (stereo unspecified) | – | 35.5 µM [rising, single point] |
| COc1ccc2nc(SCC(=O)N3CCCCCC3)c(C#N)cc2c1 | – | 35.5 µM [rising, single point] |
| O=C(COc1c(Br)cc(Br)c2cccnc12)N1CCc2ccccc2C1 | – | 35.5 µM [rising, single point] |
| COc1ccc(-c2coc3c(O)c(OC)ccc3c2=O)cc1 | – | 35.5 µM [rising, single point] |
| O=C(CCCc1nc2ccccc2s1)N1CCN(S(=O)(=O)c2cccs2)CC1 | 12.6 µM [rising, single point] | 14.1 µM [rising, single point] |
| O=C(Nc1nnc(S(=O)(=O)N2CCCC2)s1)c1ccccc1Cl | – | 8.91 µM [rising, partial curve, poor fit] |
| O=C(Nc1cccnc1)Nc1cc(Cl)cc(Cl)c1 | – | 35.5 µM [rising, single point] |
| COc1cc(-c2nc3ccccn3c2/N=C/c2ccccc2)ccc1O | 2.82 µM [falling, partial curve] | 25.1 µM [falling, single point] |
| COc1cccc(-n2cnc3sc(C)c(C)c3c2=O)c1 | 35.5 µM [rising, single point] | 15.8 µM [rising, single point] |
| COc1ccc(CNc2ccnc(-c3ccccc3Cl)n2)c(OC)c1 | 11.2 µM [falling, partial curve] | 10 µM [falling, partial curve] |
| CCOc1ccc(C(=O)NC2=NCCS2)cc1 | – | 0.0282 µM [falling, full curve, poor fit] |
| O=C(O)c1ccc(CN2CCOCC2)o1 | 0.112 µM [rising, full curve, poor fit] | – |
| CCOc1ccc(-c2nnn(CC(=O)c3ccc4c(c3)OCCO4)n2)cc1 | 35.5 µM [rising, single point] | 35.5 µM [rising, single point] |

At a glance, part of the list above.

| SMILES | AC50 [1] | AC50 [2] |
| --- | --- | --- |
| COc1cccc(-n2cnc3sc(C)c(C)c3c2=O)c1 | 35.5 µM [rising, single point] | 15.8 µM [rising, single point] |
| COc1ccc(CNc2ccnc(-c3ccccc3Cl)n2)c(OC)c1 | 11.2 µM [falling, partial curve] | 10 µM [falling, partial curve] |

Next entries

| SMILES | AC50 [1] | AC50 [2] |
| --- | --- | --- |
| CCOc1ccccc1CNC(=O)Cn1nc(C)c2nn(-c3ccc(Cl)cc3)c(C)c2c1=O | 0.562 µM [rising, full curve] | – |
| Cc1ccc(Sc2ccc(/C=N/O)cc2[N+](=O)[O-])cc1 | 10 µM [rising, partial curve, poor fit] | 22.4 µM [rising, partial curve] |
| CCOC(=O)c1ccc(NC(=O)CCc2nc(-c3ccc(Cl)cc3)no2)cc1 | 14.1 µM [rising, single point] | 25.1 µM [rising, single point] |
| COc1cc(/C=N/N2CCN(C3c4ccccc4-c4ccccc43)CC2)ccc1O | – | 35.5 µM [rising, single point] |
| COc1ccccc1Nc1nc2ccccc2n1C | – | 35.5 µM [rising, single point] |
| Cc1cc(OCC(=O)NCCN2CCOCC2)cc(C)c1Br | 14.1 µM [rising, single point] | 14.1 µM [rising, single point] |
| Cc1ccc(N2C(=O)C3CCC(c4ccccc4)CC3C2=O)cc1 (stereo unspecified) | 6.31 µM [rising, partial curve] | 11.2 µM [rising, partial curve] |
| CN(c1ccccc1)S(=O)(=O)c1cccc(NC(=O)Cn2cnc3ccccc3c2=O)c1 | – | 20 µM [rising, single point] |
| CCNS(=O)(=O)c1ccc(NC(=O)c2ccc(Cn3cc(Br)cn3)o2)cc1 | 12.6 µM [rising, partial curve] | 12.6 µM [rising, partial curve] |
| N=c1n(CCN2CCCC2)c2ccccc2n1CC(O)c1ccc(Cl)c(Cl)c1 (stereo unspecified) | 10 µM [falling, single point] | – |
| Nc1c(-c2ccccn2)cnn1-c1nc(-c2ccc(F)cc2)cs1 | – | 35.5 µM [falling, single point] |
| CCOC(=O)c1cnc(-n2nc(C)cc2C)nc1NNc1cc(C)nc(-c2ccccc2)n1 | – | 11.2 µM [rising, partial curve, poor fit] |
| C=CCN(CC=C)C(=O)C1CC(=O)N(c2ccc(Br)cc2)C1 (stereo unspecified) | 35.5 µM [rising, single point] | – |
| Cc1cccc(C)c1OCc1nc2ccccc2c(=O)n1/N=C/c1c[nH]c2ccccc12 | 35.5 µM [falling, single point] | – |
| CC(C)CNC(=O)COc1ccc2c3c(c(=O)oc2c1)CCC3 | 0.562 µM [falling, full curve] | 0.708 µM [falling, full curve] |
| CCCCCCCCCCCCCCCCCC(=O)NCC(COP(=O)([O-])OCC[N+](C)(C)C)OCC (stereo unspecified) | 6.31 µM [falling, full curve] | 5.62 µM [falling, full curve] |
| Cc1cc(C)c(C)c(S(=O)(=O)N2CCC(C(=O)Nc3ccccc3N3CCOCC3)CC2)c1C | 14.1 µM [rising, single point] | 31.6 µM [rising, single point] |
| Cc1c(Cl)ccc2c1NC(=O)[C@]21N[C@@H](CCC(N)=O)[C@H]2C(=O)N(c3ccc(F)cc3)C(=O)[C@H]21 | 12.6 µM [falling, partial curve, poor fit] | 14.1 µM [falling, single point] |
